Earlier results in patent publication US20060211763A1, “Treatment with Statin and Omega-3 Fatty Acids and a Combination Product Thereof” (priority 2005, published 2006).

Degradation in acidic environment: converted to their lactone forms
SMILES: CC(C)c1c(C(=O)Nc2ccccc2)c(-c2ccccc2)c(-c2ccc(F)cc2)n1CC[C@@H](O)C[C@@H](O)CC(=O)O [atorvastatin]
